Experimental data reported in PubChem BioAssay AID284 (DTP/NCI, 2004).
The list shows only some results of the screen, not a fair sample: it gathers tests that were run many times, whatever their T/C, doses with no T/C, and many T/C values between a quarter and a half above the control. Other doses and runs of a compound stand elsewhere. T/C is the treated group as % of the vehicle group. Some entries give survivors of the animals treated and no T/C: the source holds a T/C of zero for them, seemingly a mark for toxic or unscored doses. Some survivor counts are full or nearly so, which does not show that the dose was tolerated: the source hardly ever lists a survival T/C far under the control, and the zero likely stands for such cases as well. Survivors were counted at the toxicity check, usually on the fifth day, unless a day is given; later deaths do not show. Schedule codes are those of the source, read here as Q, the interval in days (D) or hours (H), X, the number of doses. Some schedule codes hold Z or #, which are not explained here. Some entries hold several experiments; the values are given in rising order. For survival time, this PubChem deposit counts one and a half times the control or more as active, and values a quarter to a half above the control carry no call in these data; other NCI protocols may use other cut-offs.

Test system: BDF1 mice, L1210/MTX-resistant leukemia ip, survival T/C
Assay: NCI In Vivo Anticancer Drug Screen. Data for tumor model L1210 Leukemia resistant to Methotrexate; NSC 740 (intraperitoneal) in B6D2F1 (BDF1) mice
Settings: T/C endpoint: mean survival time, higher T/C = longer survival
Procedure: The antitumor activity of compounds was measured in mice bearing transplantable tumors. Survival or tumor size were measured and the results are expressed as the measurement made in the treated group (T) divided by the measurement made in the vehicle treated control group (C). The tumor model used in this assay is L1210 Leukemia resistant to Methotrexate; NSC 740 (intraperitoneal) in B6D2F1 (BDF1) mice

[1] = dose: 75.0 mg/kg/injection, schedule: Q01DX Z (ip), vehicle: carboxymethylcellulose (CMC)
[2] = dose: 50.0 mg/kg/injection, schedule: Q01DX Z (ip), vehicle: carboxymethylcellulose (CMC)
[3] = dose: 60.0 mg/kg/injection, schedule: Q01DX010 (ip), vehicle: saline
[4] = dose: 10.0 mg/kg/injection, schedule: Q01DX010 (ip), vehicle: saline
[5] = dose: 12.5 mg/kg/injection, schedule: Q01DX Z (ip), vehicle: other
[6] = dose: 20.0 mg/kg/injection, schedule: Q01DX010 (ip), vehicle: saline
[7] = dose: 25.0 mg/kg/injection, schedule: Q01DX Z (ip), vehicle: other
[8] = dose: 50.0 mg/kg/injection, schedule: Q01DX Z (ip), vehicle: other

## Oc1cc(CN(CCCl)CCCl)c(O)cc1CN(CCCl)CCCl
dose: 4.0 mg/kg/injection, schedule: Q01DX Z (ip), vehicle: carboxymethylcellulose (CMC)
  survivor count: 5 of 6
dose: 8.0 mg/kg/injection, schedule: Q01DX Z (ip), vehicle: carboxymethylcellulose (CMC)
  survivor count: 5 of 6
dose: 9.37 mg/kg/injection, schedule: Q01DX Z (ip), vehicle: carboxymethylcellulose (CMC)
  survivor count: 5 of 6
dose: 18.75 mg/kg/injection, schedule: Q01DX Z (ip), vehicle: carboxymethylcellulose (CMC)
  survivor count: 3 of 6
dose: 37.5 mg/kg/injection, schedule: Q01DX Z (ip), vehicle: carboxymethylcellulose (CMC)
  survivor count: 4 of 6
[1]
  survivor count: 3 of 6

## C[C@]12CC[C@H](OC3OC(CO)C(O)C(O)C3O)C[C@H]1CC[C@@H]1[C@@H]2CC[C@]2(C)[C@@H](C3=CCOC3=O)CC[C@]12O (stereo partly drawn)
dose: 0.25 mg/kg/injection, schedule: Q01DX Z (ip), vehicle: saline
  survivor count: 4 of 6
dose: 0.5 mg/kg/injection, schedule: Q01DX Z (ip), vehicle: saline
  survivor count: 0 of 6
dose: 1.0 mg/kg/injection, schedule: Q01DX Z (ip), vehicle: saline
  survivor count: 0 of 6
dose: 2.0 mg/kg/injection, schedule: Q01DX Z (ip), vehicle: saline
  survivor count: 6 of 6
dose: 4.0 mg/kg/injection, schedule: Q01DX Z (ip), vehicle: saline
  survivor count: 5 of 6

## O=C(Nc1ccc(C2=NCCCN2)cc1)c1ccc(C(=O)Nc2ccc(C3=NCCCN3)cc2)cc1
dose: 16.0 mg/kg/injection, schedule: Q01DX010 (ip), vehicle: other
  survivor count: 5 of 6
[2]
  survivor count: 0 of 6
[1]
  survivor count: 0 of 6
dose: 100.0 mg/kg/injection, schedule: Q01DX Z (ip), vehicle: carboxymethylcellulose (CMC)
  survivor count: 0 of 6
dose: 187.0 mg/kg/injection, schedule: Q01DX Z (ip), vehicle: carboxymethylcellulose (CMC)
  survivor count: 0 of 6
dose: 250.0 mg/kg/injection, schedule: Q01DX Z (ip), vehicle: carboxymethylcellulose (CMC)
  survivor count: 0 of 6
dose: 375.0 mg/kg/injection, schedule: Q01DX Z (ip), vehicle: carboxymethylcellulose (CMC)
  survivor count: 0 of 6
dose: 500.0 mg/kg/injection, schedule: Q01DX Z (ip), vehicle: carboxymethylcellulose (CMC)
  survivor count: 0 of 6

## O=C(Nc1ccc(C2=NCCN2)cc1)c1ccc(C(=O)Nc2ccc(C3=NCCN3)cc2)c([N+](=O)[O-])c1
dose: 12.5 mg/kg/injection, schedule: Q01DX Z (ip), vehicle: saline
  T/C: 133 % of control

## Nc1ccc(C(=O)NO)cc1
dose: 900.0 mg/kg/injection, schedule: Q01DX015 (ip), vehicle: carboxymethylcellulose (CMC)
  survivor count: 2 of 10

## Clc1ncnc2nc[nH]c12
dose: 7.5 mg/kg/injection, schedule: Q01DX010 (ip), vehicle: saline
  survivor count: 6 of 6
[3]
  survivor count: 6 of 6

## c1ccc(CNc2ncnc3[nH]ncc23)cc1
dose: 32.0 mg/kg/injection, schedule: Q01DX010 (ip), vehicle: saline
  survivor count: 6 of 6
dose: 64.0 mg/kg/injection, schedule: Q01DX010 (ip), vehicle: saline
  survivor count: 6 of 6

## C[C@]12C=CC(=O)C=C1CC[C@@H]1[C@@H]2[C@@H](O)C[C@@]2(C)[C@H]1CC[C@]2(O)C(=O)CO
dose: 12.5 mg/kg/injection, schedule: Q01DX010 (sc), vehicle: steroid suspending solution
  survivor count: 6 of 6
dose: 25.0 mg/kg/injection, schedule: Q01DX010 (sc), vehicle: steroid suspending solution
  survivor count: 6 of 6
dose: 100.0 mg/kg/injection, schedule: Q01DX010 (sc), vehicle: steroid suspending solution
  survivor count: 6 of 6

## C[C@@H]1C[C@@H]([C@H](O)CC2CC(=O)NC(=O)C2)C(=O)[C@@H](C)C1
[4]
  survivor count: 6 of 6
[5]
  T/C: 140 % of control
  survivor count: 5 of 6
[6]
  survivor count: 6 of 6
[7]
  T/C: 86, 89, 114 % of control
  survivor count: 6 of 6
dose: 30.0 mg/kg/injection, schedule: Q01DX Z (ip), vehicle: carboxymethylcellulose (CMC)
  survivor count: 6 of 6
[8]
  T/C: 101 and 114 % of control
  survivor count: 6 of 6
dose: 100.0 mg/kg/injection, schedule: Q01DX Z (ip), vehicle: other
  survivor count: 0 of 6 and 6 of 6
dose: 200.0 mg/kg/injection, schedule: Q01DX Z (ip), vehicle: other
  survivor count: 0 of 6 and 6 of 6

## C[N+](C)(C)c1ncnc2nc[nH]c12
dose: 30.0 mg/kg/injection, schedule: Q01DX010 (ip), vehicle: saline
  survivor count: 6 of 6
[3]
  survivor count: 6 of 6
dose: 120.0 mg/kg/injection, schedule: Q01DX010 (ip), vehicle: saline
  survivor count: 6 of 6

## CCC1=C(c2ccc(OC)cc2)CCC(C(=O)O)C1C (stereo not drawn)
dose: 50.0 mg/kg/injection, schedule: Q01DX Z (ip), vehicle: methylcellulose (MC)
  survivor count: 5 of 6
dose: 100.0 mg/kg/injection, schedule: Q01DX Z (ip), vehicle: methylcellulose (MC)
  survivor count: 6 of 6
dose: 200.0 mg/kg/injection, schedule: Q01DX Z (ip), vehicle: methylcellulose (MC)
  survivor count: 6 of 6
dose: 400.0 mg/kg/injection, schedule: Q01DX Z (ip), vehicle: methylcellulose (MC)
  survivor count: 4 of 6
dose: 800.0 mg/kg/injection, schedule: Q01DX Z (ip), vehicle: methylcellulose (MC)
  survivor count: 3 of 6

## Nc1nc(=S)c2ncn(C3OC(CO)C(O)C3O)c2[nH]1 (stereo not drawn)
dose: 0.9 mg/kg/injection, schedule: Q01DX Z (ip), vehicle: carboxymethylcellulose (CMC)
  survivor count: 5 of 6
dose: 3.75 mg/kg/injection, schedule: Q01DX Z (ip), vehicle: carboxymethylcellulose (CMC)
  survivor count: 6 of 6
dose: 5.0 mg/kg/injection, schedule: Q01DX Z (ip), vehicle: carboxymethylcellulose (CMC)
  survivor count: 6 of 6
dose: 7.5 mg/kg/injection, schedule: Q01DX Z (ip), vehicle: carboxymethylcellulose (CMC)
  survivor count: 6 of 6
dose: 10.0 mg/kg/injection, schedule: Q01DX Z (ip), vehicle: carboxymethylcellulose (CMC)
  survivor count: 6 of 6

## O=c1[nH]c(=O)n(C2CC(O)C(CO)O2)cc1F (stereo not drawn)
dose: 40.0 mg/kg/injection, schedule: Q01DX Z (ip), vehicle: other
  T/C: 142 % of control
dose: 80.0 mg/kg/injection, schedule: Q01DX Z (ip), vehicle: other
  T/C: 128 % of control
dose: 160.0 mg/kg/injection, schedule: Q01DX Z (ip), vehicle: other
  survivor count: 6 of 6

## O=CCC(O)C(O)C(O)CO (stereo not drawn)
dose: 2.5 mg/kg/injection, schedule: Q01DX Z (ip), vehicle: saline
  T/C: 130 % of control
dose: 5.0 mg/kg/injection, schedule: Q01DX Z (ip), vehicle: saline
  T/C: 131 % of control

## CN(N=O)C(N)=O
[4]
  T/C: 149 % of control
[6]
  T/C: 142 % of control
dose: 40.0 mg/kg/injection, schedule: Q01DX010 (ip), vehicle: saline
  survivor count: 6 of 6
dose: 50.0 mg/kg/injection, schedule: Q01DX Z (ip), vehicle: saline
  survivor count: 6 of 6
dose: 100.0 mg/kg/injection, schedule: Q01DX Z (ip), vehicle: saline
  survivor count: 0 of 6
dose: 200.0 mg/kg/injection, schedule: Q01DX Z (ip), vehicle: saline
  survivor count: 0 of 6

## CCc1nc(N)nc(N)c1-c1ccc(Cl)cc1
dose: 72.0 mg/kg/injection, schedule: Q01DX Z (ip), vehicle: carboxymethylcellulose (CMC)
  survivor count: 7 of 7
dose: 144.0 mg/kg/injection, schedule: Q01DX Z (ip), vehicle: carboxymethylcellulose (CMC)
  survivor count: 0 of 7

## NC(=O)N(CCCl)N=O
dose: 1.0 mg/kg/injection, schedule: Q01DX010 (ip), vehicle: saline
  T/C: 141 % of control
dose: 2.0 mg/kg/injection, schedule: Q01DX010 (ip), vehicle: saline
  T/C: 133 % of control

## O=C(O)CCCc1ccc(N(CCCl)CCCl)cc1
[2]
  survivor count: 0 of 6
